Data as given in PubChem BioAssay AID743454 (Peter MacCallum Cancer Centre, 2014).

- Aim: 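Search for knock-downs that restore vorinostat killing in resistant colon cancer cells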 (primary screen)
- Cells: human HCT116-VR colon cancer cells, selected for vorinostat resistance
- Reagent: siRNA pool against human genes, 40 nM siRNA pool
- Timing: vorinostat for 24 h, read-out about 72 h after transfection
- Conditions: vorinostat at 2.5 µM final
- Read-out: 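Cell viability by CellTiter-Fluor and caspase 3/7 activity by luminescence, each scaled to mock wells per plate, duplicates averaged, then robust z-scored over all plates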
- Direction: viability robust z-score: higher = more viable cells than screen typical; caspase robust z-score: higher = more caspase 3/7 activity than screen typical
- Rule for the call: 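a knock-down is a hit when classed RV1 or RV2 for lowered viability, or CA1 or CA2 for caspase activation; those lethal without drug were dropped; hits were retested singly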
Here is a random part of about 18,000 reagents. In the full data, 450 (2.5%) were called active. 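Single biological run; no consistent viability z cut-off exists, so the class columns, not z-scores, define the calls.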 A number with no mark means an inactive call. Reagents against one gene are numbered here.

The opening 2 records, ahead of the listing:
gene | pool no. | viability hit class | caspase hit class | viability robust z-score | caspase robust z-score
COX19 (cytochrome c oxidase assembly factor COX19) | 1 | no change | no change | 0.57 | -0.88
SLC7A9 | 1 | no change | no change | -0.76 | -0.17

Results, repeating the preview:
gene | pool no. | viability hit class | caspase hit class | viability robust z-score | caspase robust z-score
COX19 (cytochrome c oxidase assembly factor COX19) | 1 | no change | no change | 0.57 | -0.88
SLC7A9 | 1 | no change | no change | -0.76 | -0.17
EMID1 (EMI domain containing 1) | 1 | no change | no change | 0.19 | 4.78
NACA2 (nascent polypeptide associated complex subunit alpha 2) | 1 | no change | no change | -0.68 | -1.06
BSN (bassoon presynaptic cytomatrix protein) | 1 | no change | no change | -0.07 | 1.24
FREY1 (Frey regulator of sperm-oocyte fusion 1) | 1 | no change | no change | 0.56 | 0.38
CDK16 (cyclin dependent kinase 16) | 1 | no change | no change | -0.22 | -0.36
H4C9 (H4 clustered histone 9) | 1 | no change | no change | -0.04 | -0.28
PXDNL (peroxidasin like) | 1 | no change | no change | -0.62 | 0.55
DDX41 (DEAD-box helicase 41) | 1 | no change | no change | -0.97 | -0.14
XTBD1 (XRN2 binding domain containing 1) | 1 | no change | no change | 0.26 | 0.46
OR9G1 (olfactory receptor family 9 subfamily G member 1) | 1 | no change | no change | 0.78 | -1.26
OR7G3 (olfactory receptor family 7 subfamily G member 3) | 1 | no change | no change | 0.58 | -0.84
DPYSL4 (dihydropyrimidinase like 4) | 1 | no change | no change | 0.56 | 0.04
TM7SF2 (transmembrane 7 superfamily member 2) | 1 | no change | no change | -0.1 | -0.28
LRRN1 (leucine rich repeat neuronal 1) | 1 | no change | no change | -2.3 | 0.11
GON7 (GON7 subunit of KEOPS complex) | 1 | no change | no change | -0.72 | -0.46
ZGRF1 (zinc finger GRF-type containing 1) | 1 | no change | no change | -0.81 | 1.36
ZGRF1 (zinc finger GRF-type containing 1) | 2 | no change | no change | 1.09 | 0.43
NHERF4 (NHERF family PDZ scaffold protein 4) | 1 | no change | no change | 0.97 | -0.94
SLC7A13 | 1 | no change | no change | 1.16 | -0.41
GRM6 (glutamate metabotropic receptor 6) | 1 | no change | no change | -0.56 | 3.24
AVPR2 (arginine vasopressin receptor 2) | 1 | no change | no change | -0.01 | 1.05
